Experimental findings from patent US20260234268A1, “ANTI-ASGR1 MONOCLONAL ANTIBODY AND USE THEREOF” (CHOLESGEN (SHANGHAI) CO., LTD., priority 2022, published 2026) are described below.

Structures are written as SMILES.

The data set deals with mice fed a high-fat, high-cholesterol, and cholate (HF/HC/BS) diet. Kind of data set: 4B9 and atorvastatin, alone or combined, in mice fed HF/HC/BS diet, 14 days (Example 2, FIG. 3). As to conditions: 4B9 10 mg/kg/day i.p. every other day.

On to `CC(C)c1c(C(=O)Nc2ccccc2)c(-c2ccccc2)c(-c2ccc(F)cc2)n1CC[C@@H](O)C[C@@H](O)CC(=O)O` [atorvastatin], for which the “total amount of total bile acid in bile” value (atorvastatin 30 mg/kg/day intragastric daily (FIG. 3i)) was “almost no effect”. Further, the “ratio of liver weight to body weight” value (8 groups of mice, atorvastatin 30 mg/kg/day intragastric daily (FIG. 3m)) is given as “No significant differences”.
